The source of these data is US20260272797A1, “FRAGRANCE COMPOSITION” (GIVAUDAN SA, priority 2023, published 2026).

The nature of this data set: Odour intensity of fragrance ingredient (olfactometry / typical dosage) used for grouping. As to conditions: Table 3; odour intensity of ingredient (Low/Medium/High).
As for `CC(C)=CCC(C)C1CC1(C)CO` (stereo not drawn) [1-methyl-2-(5-methylhex-4-en-2-yl)cyclopropylmethanol], the Ingredient intensity result was “Low”.
With `CC(=O)C(C)O` (stereo not drawn) [3-hydroxybutan-2-one], the Ingredient intensity entry is on record as “High”.
In the case of `CC1(CO)CC1CC1CC2CC2(C)C1(C)C` (stereo not drawn) [1-methyl-2-((1,2,2-trimethylbicyclo[3.1.0]hexan-3-yl)methyl)cyclopropyl)methanol] it was “High”.
